Where a chain is given by its changes, count along the chain named. No constants are given. Whether binding was seen depends on the method and setting. Some entries that bind do so weakly or less than the wild type.
Legend:
[1] = biological target: human LILRB1 expressed on cells (human) (UniProt Q8NHL6); assay: flow cytometry, Jurkat-LILRB1 cells
[2] = biological target: human LILRB2 expressed on cells (human) (UniProt Q8N423); assay: flow cytometry, Jurkat-LILRB2 cells
[3] = biological target: human LILRB1 expressed on cells (human) (UniProt Q8NHL6); assay: flow cytometry, Jurkat-LILRB1 cells; blocked ligand: APC HLA-G trimer tetramer
[4] = biological target: human LILRB2 expressed on cells (human) (UniProt Q8N423); assay: flow cytometry, Jurkat-LILRB2 cells; blocked ligand: APC HLA-G monomer tetramer
[5] = biological target: human LILRB1 expressed on cells (human) (UniProt Q8NHL6); assay: flow cytometry, CHO-LILRB1 cells
[6] = biological target: human LILRB2 expressed on cells (human) (UniProt Q8N423); assay: flow cytometry, CHO-LILRB2 cells
[7] = biological target: human LILRB1 expressed on cells (human) (UniProt Q8NHL6); assay: flow cytometry, CHO-LILRB1 cells; blocked ligand: APC HLA-G trimer tetramer
[8] = biological target: human LILRB2 expressed on cells (human) (UniProt Q8N423); assay: told in the legend of FIG. 21; assay not named
[9] = biological target: human LILRB2 expressed on cells (human) (UniProt Q8N423); assay: told in the legend of FIG. 22; assay not named
[10] = biological target: LILRA1 expressed on cells (human) (UniProt O75019); assay: flow cytometry on CHO-LILRA1 cells
[11] = biological target: LILRA1 expressed on cells (human) (UniProt O75019); assay: flow cytometry on transiently transfected 293T cells, 5 µg/mL antibody
[12] = biological target: LILRA1 expressed on cells (human) (UniProt O75019); assay: flow cytometry on CHO-LILRA1 cells (CHO-RA1), titrated antibody, labelled anti-human Fc, gMFI
[13] = biological target: LILRA1 expressed on cells (human) (UniProt O75019); assay: flow cytometry on 293T cells transiently expressing LILRA1, antibody 5 µg/mL, APC anti-human Fc; gMFI as fold to IgG staining
[14] = biological target: LILRB3 expressed on cells (human) (UniProt O75022); assay: flow cytometry on CHO-LILRB3 cells
[15] = biological target: LILRA6 expressed on cells (human) (UniProt Q6PI73); assay: flow cytometry on CHO-LILRA6 cells
[16] = biological target: LILRB3 expressed on cells (human) (UniProt O75022); assay: flow cytometry on CHO-LILRB3 cells (CHO-RB3), titrated antibody, labelled anti-human Fc, gMFI
[17] = biological target: LILRA6 expressed on cells (human) (UniProt Q6PI73); assay: flow cytometry on CHO-LILRA6 cells (CHO-RA6), titrated antibody, labelled anti-human Fc, gMFI

Protein sequences, listed by entry. Tags and fused reporters are not part of them. Lines headed by an entry give the natural chain unless they say otherwise; changes in a name come on top. Residues count along the entry.
UniProt Q8NHL6: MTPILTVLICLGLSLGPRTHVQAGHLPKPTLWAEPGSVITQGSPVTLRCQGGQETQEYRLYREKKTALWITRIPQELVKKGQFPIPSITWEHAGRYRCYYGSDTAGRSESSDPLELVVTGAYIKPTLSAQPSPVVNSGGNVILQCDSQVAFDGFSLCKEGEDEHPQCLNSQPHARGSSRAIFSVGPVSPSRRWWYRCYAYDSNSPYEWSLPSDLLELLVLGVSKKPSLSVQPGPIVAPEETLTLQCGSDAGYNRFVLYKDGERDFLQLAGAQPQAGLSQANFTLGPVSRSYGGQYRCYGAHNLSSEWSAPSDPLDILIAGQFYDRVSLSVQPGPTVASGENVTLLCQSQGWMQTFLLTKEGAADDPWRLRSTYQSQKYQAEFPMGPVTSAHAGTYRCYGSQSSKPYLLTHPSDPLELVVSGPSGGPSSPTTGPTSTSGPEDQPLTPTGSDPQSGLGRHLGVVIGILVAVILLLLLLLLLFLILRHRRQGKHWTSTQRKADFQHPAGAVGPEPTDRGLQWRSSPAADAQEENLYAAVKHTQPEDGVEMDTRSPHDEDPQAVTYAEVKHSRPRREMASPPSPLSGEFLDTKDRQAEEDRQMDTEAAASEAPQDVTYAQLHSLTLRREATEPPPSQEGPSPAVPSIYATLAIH
UniProt Q8N423: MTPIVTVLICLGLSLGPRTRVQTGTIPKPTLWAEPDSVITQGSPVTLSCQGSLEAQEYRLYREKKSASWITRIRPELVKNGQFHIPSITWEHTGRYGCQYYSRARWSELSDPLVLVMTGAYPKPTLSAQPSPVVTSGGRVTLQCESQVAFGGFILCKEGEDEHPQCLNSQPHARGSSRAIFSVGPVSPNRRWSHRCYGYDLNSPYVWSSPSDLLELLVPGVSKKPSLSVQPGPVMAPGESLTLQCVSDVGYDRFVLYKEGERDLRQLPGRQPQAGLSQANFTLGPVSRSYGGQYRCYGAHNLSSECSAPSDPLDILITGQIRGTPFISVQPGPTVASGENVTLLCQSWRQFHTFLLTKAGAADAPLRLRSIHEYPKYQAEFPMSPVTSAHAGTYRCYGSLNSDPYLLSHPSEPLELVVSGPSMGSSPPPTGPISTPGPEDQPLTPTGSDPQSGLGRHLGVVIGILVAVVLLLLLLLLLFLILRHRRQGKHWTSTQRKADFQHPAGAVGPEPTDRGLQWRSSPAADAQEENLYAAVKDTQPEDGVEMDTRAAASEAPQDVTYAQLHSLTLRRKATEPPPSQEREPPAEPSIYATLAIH
UniProt O75019, residues 17-489: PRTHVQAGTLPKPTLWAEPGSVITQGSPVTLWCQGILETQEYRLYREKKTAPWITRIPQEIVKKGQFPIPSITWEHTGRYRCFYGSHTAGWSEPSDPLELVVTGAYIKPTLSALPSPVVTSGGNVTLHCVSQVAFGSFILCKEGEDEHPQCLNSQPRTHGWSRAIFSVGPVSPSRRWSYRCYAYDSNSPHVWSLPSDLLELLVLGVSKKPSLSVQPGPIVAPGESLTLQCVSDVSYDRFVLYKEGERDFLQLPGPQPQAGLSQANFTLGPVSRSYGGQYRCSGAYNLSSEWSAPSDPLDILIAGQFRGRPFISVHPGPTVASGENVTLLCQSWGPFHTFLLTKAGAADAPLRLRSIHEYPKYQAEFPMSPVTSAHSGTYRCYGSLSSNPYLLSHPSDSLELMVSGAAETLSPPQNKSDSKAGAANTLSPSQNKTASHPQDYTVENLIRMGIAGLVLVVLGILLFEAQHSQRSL
UniProt O75022, residues 24-631: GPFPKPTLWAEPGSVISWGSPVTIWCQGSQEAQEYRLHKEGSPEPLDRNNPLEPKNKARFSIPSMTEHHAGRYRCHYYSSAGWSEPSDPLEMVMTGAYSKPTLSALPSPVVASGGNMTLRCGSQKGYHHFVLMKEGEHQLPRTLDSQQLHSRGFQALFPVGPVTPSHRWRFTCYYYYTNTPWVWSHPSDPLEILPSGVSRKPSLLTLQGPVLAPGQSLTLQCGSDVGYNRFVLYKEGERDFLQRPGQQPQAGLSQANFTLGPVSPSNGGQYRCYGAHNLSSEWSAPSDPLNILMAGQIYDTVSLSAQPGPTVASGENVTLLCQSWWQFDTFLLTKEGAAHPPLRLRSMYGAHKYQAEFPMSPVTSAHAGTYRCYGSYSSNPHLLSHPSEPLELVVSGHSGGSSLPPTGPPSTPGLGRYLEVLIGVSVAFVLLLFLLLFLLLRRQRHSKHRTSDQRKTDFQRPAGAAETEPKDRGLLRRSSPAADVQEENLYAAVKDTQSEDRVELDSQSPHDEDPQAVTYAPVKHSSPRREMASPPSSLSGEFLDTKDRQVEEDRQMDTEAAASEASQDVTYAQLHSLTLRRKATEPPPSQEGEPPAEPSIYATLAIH
UniProt Q6PI73, residues 24-481: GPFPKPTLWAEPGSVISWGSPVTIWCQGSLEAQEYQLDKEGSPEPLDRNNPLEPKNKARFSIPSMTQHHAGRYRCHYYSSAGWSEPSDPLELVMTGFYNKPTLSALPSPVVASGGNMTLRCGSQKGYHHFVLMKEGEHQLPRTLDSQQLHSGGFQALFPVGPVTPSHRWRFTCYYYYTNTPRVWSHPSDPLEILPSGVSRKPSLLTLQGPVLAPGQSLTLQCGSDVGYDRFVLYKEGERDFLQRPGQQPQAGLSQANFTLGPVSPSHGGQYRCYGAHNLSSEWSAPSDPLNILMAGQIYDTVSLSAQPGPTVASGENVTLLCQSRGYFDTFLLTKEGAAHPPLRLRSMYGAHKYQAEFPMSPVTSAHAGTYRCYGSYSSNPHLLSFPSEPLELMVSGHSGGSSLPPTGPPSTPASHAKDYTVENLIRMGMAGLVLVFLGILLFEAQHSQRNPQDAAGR

B1: D2M002-101 (antibody, V domains shown)
VH: QVQLVQSGAEVKKPGASVKVSCKASGYTFTRYVMHWVRQAPGQRLEWMGWINPNNEETKYSQKFKGRVTLTRDTSASTAYMELSSLRSEDTAVYYCARADLEILPYYDHARNAMDYWGQGTLVTVSS
VL: DIQMTQSPSSVSASVGDRVTITCRASENIYSHLAWYQQKPGKAPKLLVYNAKSLQSGVPSRFSGSGSGTDFTLTISSLQPEDFATYYCQHFWSTPPTFGGGTKVEIK
**Q.** With B1 as the binder, how does the binding [1] read?
**A.** binds

**Q.** What about the binding [2] of the same binder?
**A.** binds

**Q.** And the binding [3]?
**A.** binds

**Q.** What about the binding [4] of the same binder?
**A.** binds

B2: #16 (antibody, human IgG1, V domains shown)
VH: EVQLQQSGAELMKPGASVKISCKATGNTFSSYWIEWVKQRPGHDLEWIGEILPGSGSTNYNEKFKGKATFTADTSSNTAYMQLNSLTSEDSAVYYCARSGAGGYDSGAFAYWGQGTLVTVSA
VL: DIEMTQSPASLAVSLGQRATISCRASESIDSYGNSFMHWYQQKPGQPPKLLIYRTSNLESGIPARFSGSGSRTDFTLTINPVEADDVATYYCQQSNEDPWTFGGGTKLEIK
**Q.** For B2, which binding [5] is on record?
**A.** binds

**Q.** What about the binding [6] of the same binder?
**A.** binds

**Q.** And the binding [7]?
**A.** binds

B3: #17 (antibody, human IgG1, V domains shown)
VH: B2 VH with A24T, T58S
VL: B2 VL with E3V, M4L, I29V, A64S
**Q.** Which results are given for B3?
**A.** binding [5]: binds; binding [6]: binds

B4: #18 (antibody, human IgG1, V domains shown)
VH: B2 VH with A24T
VL: B2 VL with E3V, M4L, I29V
**Q.** What does the source list for B4?
**A.** binding [5]: binds; binding [6]: binds

B5: #20 (antibody, human IgG1, V domains shown)
VH: B2 VH with E1Q, L4F, A9V, S31N
VL: B2 VL with E3V, I29V
**Q.** Which results are given for B5?
**A.** binding [5]: binds; binding [6]: binds

B6: #21 (antibody, human IgG1, V domains shown)
VH: B2 VH with E1Q, N27S, D44G, N84S
VL: B2 VL with E3V, M4L, I29V, S31T
**Q.** What does the source list for B6?
**A.** binding [5]: binds; binding [6]: binds

B7: #8 (antibody, human IgG1, V domains shown)
VH: B2 VH with S7P, N27Y, Y32S, I34T, D44G, N84S
VL: B2 VL with E3V, M4L, S31T
**Q.** What does the source list for B7?
**A.** binding [5]: binds; binding [6]: binds; binding [7]: binds

B8: #11 (antibody, human IgG1, V domains shown)
VH: B2 VH with N27Y, S31N, D44G, N59D, K65E, N84S
VL: B2 VL with E3Q, I29V, S31T
**Q.** What does the source list for B8?
**A.** binding [5]: binds; binding [6]: binds; binding [7]: binds

B9: #22 (antibody, human IgG1, V domains shown)
VH: B2 VH with E1Q, N27Y, F29L, D44G, N84S
VL: B2 VL with E3V, M4L, I29V, S31T
**Q.** For B9, which binding [5] is on record?
**A.** binds

**Q.** And the binding [6]?
**A.** binds

**Q.** What about the binding [7] of the same binder?
**A.** binds

B10: #27 (antibody, human IgG1, V domains shown)
VH: B2 VH with A24I, N27Y, T69S
VL: B2 VL with E3V, M4L, I29V, S31T
**Q.** Which binding [5] does the source give for B10 here?
**A.** binds

**Q.** And the binding [6]?
**A.** binds

**Q.** And the binding [7]?
**A.** binds

B11: #28 (antibody, human IgG1, V domains shown)
VH: B2 VH with N27Y, D44G, N84S, A122S
VL: B2 VL with E3V, I29V, S31T
**Q.** Which binding [5] does the source give for B11 here?
**A.** binds

**Q.** And the binding [6]?
**A.** binds

B12: D2M002-044 (antibody, human IgG1, V domains shown)
VH: EVQLQQSGAELVRPGALVKLSCKGSGFNIKDYYMHWVRQRPEQGLEWIGWIDPENGNTVYAPKFQGKASITSDTSSNIAYLQFSSLTSEDTAVYYCARSRDHGAMDYWGQGTSVTVSS
VL: DVQITQSPAIMSASPGEKVTLTCSASSSVSSSNLYWYQQKPGSSPKLWIYSTSNLASGVPARFSGSGFGTSYALTISSMEAEDAASYFCHQWSSYPYTFGGGTKLEIK
**Q.** Which results are given for B12?
**A.** binding [6]: binds; binding [8]: binds; binding [9]: binds

B13: #12 (antibody, human IgG1, V domains shown)
VH: B2 VH with E1Q, V2I, Q5L, N27Y, S31N, D44G, N84S, A122S
VL: B2 VL with E3V, M4L, I29V, T89A
**Q.** What does the source list for B13?
**A.** binding [5]: binds; binding [6]: binds

B14: D2M002-026 (antibody, V domains shown)
VH: B2 VH with E1Q, S7P, N27Y, D44G, S55D, E62A, K67Q, L83F, N84S, A122S
VL: B2 VL with E3V, M4L, I29V, S31T, I52V, R72G
**Q.** B14 was tested. Which binding [10] did it give?
**A.** binds

**Q.** And the binding [11]?
**A.** binds

**Q.** And the binding [12]?
**A.** binds

**Q.** And the binding [13]?
**A.** binds

B15: #23 (antibody, human IgG1, V domains shown)
VH: QVQMQQPGAELMKPGASVKISCKATGYTFSRYWIEWVKQRPGHGLEWIGEILPGDGSTNYNAKFKGQATFTADTSSNTAYMQFSSLTYEDSAVYYCARSGAGGYDSGAFAYWGQGTLVTVSS
VL: B2 VL with E3V, M4L, I29V, S31T
**Q.** Which binding [5] does the source give for B15 here?
**A.** binds

**Q.** What about the binding [6] of the same binder?
**A.** binds

B16: D2M002-103HV1 (antibody, V domains shown)
VH: B1 VH with M48I, W50Y, N112Y
VL: B1 VL
**Q.** Which binding [14] does the source give for B16 here?
**A.** binds

**Q.** What about the binding [10] of the same binder?
**A.** binds

**Q.** And the binding [15]?
**A.** binds

**Q.** What about the binding [16] of the same binder?
**A.** binds

**Q.** And the binding [12]?
**A.** binds

**Q.** What about the binding [17] of the same binder?
**A.** binds

B17: D2M002-126 (antibody, V domains shown)
VH: QVQLVQSGAEVKKPGASVKVSCKASGYTFTSYWIEWVRQAPGQGLEWIGEILPGDESTNYNAKFKGRVTFTTDTSTSTAYMELRSLRSDDTAVYYCARSGAGGYDSGAFAYWGQGTLVTVSS
VL: AIQLTQSPSSLSASVGDRVTITCRASESVDTYGNSFMHWYQQKPGKAPKLLVYRTSNLESGVPSRFSGSGSGTDFTLTISSLQPEDFATYYCQQSNEDPWTFGGGTKVEIK
**Q.** Which results are given for B17?
**A.** binding [10]: binds; binding [12]: binds

B18: #29 (antibody, human IgG1, V domains shown)
VH: B2 VH with L11V, M12K, N27Y, D44G, N84S, S91F, A92T, A110G, A122S
VL: B2 VL with E3V, S31T, T55A
**Q.** How did the binding [5] turn out when B18 was run?
**A.** binds

**Q.** What about the binding [6] of the same binder?
**A.** binds

B19: #40 (antibody, human IgG1, V domains shown)
VH: B2 VH with A24T, S55R, Y60N, T69P, A101G
VL: B2 VL with E3V, M4L, I29V, S31T
**Q.** For B19, which binding [5] is on record?
**A.** binds

B20: #41 (antibody, human IgG1, V domains shown)
VH: DVQLQQSGAELMKPGASVKISCKATGYTFSSSWIEWVKQRPGHGLEWIGEILPGSGNTSYNEKFKGKATFTADTSSSAAYMQLSSLTSEDSAVYYCARSGLYYDYGGFAYWGQGTLVTVSA
VL: B2 VL with E3V, M4L, I29V, S31T, W100F, G104S
**Q.** How did the binding [5] turn out when B20 was run?
**A.** binds

**Q.** What about the binding [6] of the same binder?
**A.** binds

B21: #31 (antibody, human IgG1, V domains shown)
VH: QVQMQPFGAELMKPGASVRISCKATGYTFSSSWIEWVKQRPGHGLEWIGEILPGSGTTNYNEKFKGKATFTADTSSNTAYMQLSSLTSEDSAVYYCARSGAGGYDSGAFTYWGQGTLVTVSA
VL: B2 VL with E3V, M4L, S31T, T55A
**Q.** Which binding [5] does the source give for B21 here?
**A.** binds

**Q.** And the binding [6]?
**A.** binds

B22: #45 (antibody, human IgG1, V domains shown)
VH: QIQLLQSGPELKKPGETVKISCKASGYTFTDYSMHWVKQAPGKGLKWMGWINTETGEPTYADDFKGRFAFSLETSASTAYLQINNLKNEDTATYFCARVVRRGYFDVWGAGTTVTVSS
VL: DIQMTQSPASLSASVGETVTITCRASGNIHNYLAWYQQKQGKSPQVLVYNAKTLADGVPSRFSGSGSGTQYSLKINSLQPEDFGSYYCQHFWSTPFTFGSGTKLEIK
**Q.** B22 was tested. Which binding [5] did it give?
**A.** binds

B23: #35 (antibody, human IgG1, V domains shown)
VH: B21 VH with M4L, P6Q, F7S, T57S
VL: B2 VL with E3V, M4L, S31T, T55A
**Q.** With B23 as the binder, how does the binding [5] read?
**A.** binds

**Q.** And the binding [6]?
**A.** binds

B24: #36 (antibody, human IgG1, V domains shown)
VH: B21 VH with M4L, P6Q, F7S
VL: B2 VL with E3V, M4L, S31T, T55A
**Q.** B24 was tested. Which binding [5] did it give?
**A.** binds

**Q.** What about the binding [6] of the same binder?
**A.** binds

— patent US20250171534A1
